Assay results as given in paper doi:10.1101/2021.09.19.460961.
No constants are given. Whether binding was seen depends on the method and setting. In cells and extracts the contact can be indirect. Some results given as binding are weak or reduced against the parent protein; the word gives no strength. Tags and fused reporters may be left off the sequences shown.

Protein sequences, listed by entry. Tags and fused reporters are not part of them.
UniProt Q13838: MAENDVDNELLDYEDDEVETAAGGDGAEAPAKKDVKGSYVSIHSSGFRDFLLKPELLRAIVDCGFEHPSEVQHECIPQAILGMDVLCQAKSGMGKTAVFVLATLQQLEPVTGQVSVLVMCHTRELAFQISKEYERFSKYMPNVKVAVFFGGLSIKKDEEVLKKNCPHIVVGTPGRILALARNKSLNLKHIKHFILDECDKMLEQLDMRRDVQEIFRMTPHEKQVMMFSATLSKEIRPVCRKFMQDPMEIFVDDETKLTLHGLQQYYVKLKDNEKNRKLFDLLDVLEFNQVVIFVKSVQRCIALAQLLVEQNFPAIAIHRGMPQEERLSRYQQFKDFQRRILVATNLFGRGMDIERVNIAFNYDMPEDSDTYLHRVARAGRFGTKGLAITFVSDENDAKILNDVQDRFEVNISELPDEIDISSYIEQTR

T1: FLAG-PGC-1α wild type (WT) (human) (UniProt Q9UBK2)
T1 sequence: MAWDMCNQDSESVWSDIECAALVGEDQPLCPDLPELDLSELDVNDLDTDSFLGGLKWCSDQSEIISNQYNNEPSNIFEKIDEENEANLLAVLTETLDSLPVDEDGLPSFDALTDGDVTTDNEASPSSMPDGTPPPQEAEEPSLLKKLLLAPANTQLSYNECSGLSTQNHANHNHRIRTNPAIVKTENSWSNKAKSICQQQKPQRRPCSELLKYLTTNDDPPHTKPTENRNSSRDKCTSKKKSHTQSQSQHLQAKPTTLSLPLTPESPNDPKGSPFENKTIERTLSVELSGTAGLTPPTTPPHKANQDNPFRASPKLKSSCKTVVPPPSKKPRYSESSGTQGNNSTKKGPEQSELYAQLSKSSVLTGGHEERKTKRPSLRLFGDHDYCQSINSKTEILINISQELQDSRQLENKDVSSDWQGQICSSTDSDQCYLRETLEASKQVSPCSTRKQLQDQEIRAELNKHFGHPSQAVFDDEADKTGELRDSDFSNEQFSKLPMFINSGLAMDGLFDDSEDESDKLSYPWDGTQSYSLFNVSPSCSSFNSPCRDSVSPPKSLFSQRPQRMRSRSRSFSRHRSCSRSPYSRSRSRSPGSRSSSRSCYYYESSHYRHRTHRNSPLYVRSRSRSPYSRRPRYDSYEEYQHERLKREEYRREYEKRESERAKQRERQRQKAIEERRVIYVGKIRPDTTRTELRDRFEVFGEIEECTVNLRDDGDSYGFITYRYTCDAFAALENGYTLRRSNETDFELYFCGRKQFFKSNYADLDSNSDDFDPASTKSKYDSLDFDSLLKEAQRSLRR

T2: FLAG-PGC-1α ΔRS (human) (UniProt Q9UBK2)
T2 sequence: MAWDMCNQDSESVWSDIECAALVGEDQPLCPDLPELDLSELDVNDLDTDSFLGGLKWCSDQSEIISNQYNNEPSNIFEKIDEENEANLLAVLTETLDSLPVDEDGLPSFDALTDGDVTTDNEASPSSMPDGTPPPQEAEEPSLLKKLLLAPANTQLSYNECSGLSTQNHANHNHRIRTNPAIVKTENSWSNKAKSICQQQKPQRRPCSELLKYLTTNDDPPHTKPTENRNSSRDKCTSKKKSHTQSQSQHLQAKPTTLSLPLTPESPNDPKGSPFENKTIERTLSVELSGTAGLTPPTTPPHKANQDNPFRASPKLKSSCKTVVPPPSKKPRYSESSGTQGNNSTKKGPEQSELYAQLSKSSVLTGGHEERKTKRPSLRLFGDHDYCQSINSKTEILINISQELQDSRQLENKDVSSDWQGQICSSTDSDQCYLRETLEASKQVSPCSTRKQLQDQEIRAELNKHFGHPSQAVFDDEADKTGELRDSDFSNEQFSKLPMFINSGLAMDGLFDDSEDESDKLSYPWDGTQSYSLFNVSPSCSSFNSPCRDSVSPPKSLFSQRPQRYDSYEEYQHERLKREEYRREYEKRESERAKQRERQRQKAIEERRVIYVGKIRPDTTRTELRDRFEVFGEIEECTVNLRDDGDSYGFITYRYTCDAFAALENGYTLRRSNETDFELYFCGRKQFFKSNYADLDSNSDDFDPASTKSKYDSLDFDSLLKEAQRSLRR

T3: GST-NXF1:p15 (UniProt Q9UBU9)
T3 sequence 1: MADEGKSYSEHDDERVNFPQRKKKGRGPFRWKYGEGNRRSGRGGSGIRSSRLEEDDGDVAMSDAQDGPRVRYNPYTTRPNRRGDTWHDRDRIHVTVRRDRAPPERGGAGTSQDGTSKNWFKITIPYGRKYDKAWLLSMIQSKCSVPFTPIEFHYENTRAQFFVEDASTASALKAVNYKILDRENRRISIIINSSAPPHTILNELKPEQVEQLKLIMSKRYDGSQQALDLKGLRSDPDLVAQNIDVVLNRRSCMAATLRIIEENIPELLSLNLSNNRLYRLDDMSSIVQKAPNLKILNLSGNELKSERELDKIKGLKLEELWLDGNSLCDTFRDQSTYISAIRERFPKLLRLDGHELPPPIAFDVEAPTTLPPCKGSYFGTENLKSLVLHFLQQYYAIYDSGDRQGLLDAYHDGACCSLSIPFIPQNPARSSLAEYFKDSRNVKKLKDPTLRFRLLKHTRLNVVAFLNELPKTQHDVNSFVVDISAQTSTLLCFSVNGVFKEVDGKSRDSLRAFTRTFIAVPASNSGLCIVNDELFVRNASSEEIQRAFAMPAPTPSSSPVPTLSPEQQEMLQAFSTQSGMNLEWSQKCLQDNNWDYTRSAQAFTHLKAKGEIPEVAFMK
T3 sequence 2: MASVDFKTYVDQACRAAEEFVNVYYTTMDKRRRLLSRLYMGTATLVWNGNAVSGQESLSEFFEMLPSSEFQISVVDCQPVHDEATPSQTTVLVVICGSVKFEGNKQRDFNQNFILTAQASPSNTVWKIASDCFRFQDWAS


Assays:
[1] = target: T1, FLAG-PGC-1α wild type (WT) (human); assay: co-IP
FLAG-PGC-1α ΔRS (human) = target: T2, FLAG-PGC-1α ΔRS (human); assay: co-IP
GST-NXF1:p15 = target: T3, GST-NXF1:p15; assay: pull-down

Row | Molecule | binding [1] | binding (FLAG-PGC-1α ΔRS (human)) | binding (GST-NXF1:p15)
1 | UAP56 (endogenous TREX subunit) (from UniProt Q13838 1-428) | binds | binds | –
2 | THOC1 (endogenous TREX subunit) (protein, UniProt Q96FV9 1-657) MSPTPPLFSLPEARTRFTKSTREALNNKNIKPLLSTFSQVPGSENEKKCTLDQAFRGILEEEIINHSSCENVLAIISLAIGGVTEGICTASTPFVLLGDVLDCLPLDQCDTIFTFVEKNVATWKSNTFYSAGKNYLLRMCNDLLRRLSKSQNTVFCGRIQLFLARLFPLSEKSGLNLQSQFNLENVTVFNTNEQESTLGQKHTEDREEGMDVEEGEMGDEEAPTTCSIPIDYNLYRKFWSLQDYFRNPVQCYEKISWKTFLKYSEEVLAVFKSYKLDDTQASRKKMEELKTGGEHVYFAKFLTSEKLMDLQLSDSNFRRHILLQYLILFQYLKGQVKFKSSNYVLTDEQSLWIEDTTKSVYQLLSENPPDGERFSKMVEHILNTEENWNSWKNEGCPSFVKERTSDTKPTRIIRKRTAPEDFLGKGPTKKILMGNEELTRLWNLCPDNMEACKSETREHMPTLEEFFEEAIEQADPENMVENEYKAVNNSNYGWRALRLLARRSPHFFQPTNQQFKSLPEYLENMVIKLAKELPPPSEEIKTGEDEDEEDNDALLKENESPDVRRDKPVTGEQIEVFANKLGEQWKILAPYLEMKDSEIRQIECDSEDMKMRAKQLLVAWQDQEGVHATPENLINALNKSGLSDLAESLTNDNETNS | binds | binds | –
3 | 35S-radiolabelled PGC-1α RS domain (aa565-633) (domain or fragment, UniProt Q9UBK2 565-633, 35S-methionine radiolabel) MRSRSRSFSRHRSCSRSPYSRSRSRSPGSRSSSRSCYYYESSHYRHRTHRNSPLYVRSRSRSPYSRRPR | – | – | binds
4 | GB1-6His-tagged PGC-1α RS domain (aa565-633) (domain or fragment, UniProt Q9UBK2 565-633) MRSRSRSFSRHRSCSRSPYSRSRSRSPGSRSSSRSCYYYESSHYRHRTHRNSPLYVRSRSRSPYSRRPR | – | – | binds
